This is an account of results in patent US20120269817A1.

By UniProt entry, the sequences of proteins in these tests, tags left out. Where a name states a change or a piece, a line headed by the entry shows the natural chain unless it says otherwise. Residues count along the entry.
UniProt O54819, residues 29-289: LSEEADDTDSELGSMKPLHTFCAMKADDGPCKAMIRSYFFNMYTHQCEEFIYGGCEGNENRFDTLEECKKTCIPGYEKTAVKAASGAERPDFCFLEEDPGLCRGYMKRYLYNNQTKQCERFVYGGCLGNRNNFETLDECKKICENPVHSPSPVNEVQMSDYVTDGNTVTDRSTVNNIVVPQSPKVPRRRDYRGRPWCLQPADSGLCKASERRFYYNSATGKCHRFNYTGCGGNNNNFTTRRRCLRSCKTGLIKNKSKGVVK
UniProt P10646: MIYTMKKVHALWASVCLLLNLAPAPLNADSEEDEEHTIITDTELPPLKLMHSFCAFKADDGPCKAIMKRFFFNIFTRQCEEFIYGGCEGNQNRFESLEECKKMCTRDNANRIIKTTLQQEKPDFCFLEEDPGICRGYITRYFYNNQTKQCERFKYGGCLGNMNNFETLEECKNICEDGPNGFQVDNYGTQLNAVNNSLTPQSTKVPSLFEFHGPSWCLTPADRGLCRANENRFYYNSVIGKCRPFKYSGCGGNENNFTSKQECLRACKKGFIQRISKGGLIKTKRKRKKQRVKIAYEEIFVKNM
human tissue factor pathway inhibitor (TFPI): residues 29-304 of P10646
human TFPI K1 + K2 + K3: residues 29-270 of P10646
human TFPI K1 + K2: residues 29-189 of P10646

The target in assay [1] is mouse tissue factor pathway inhibitor (TFPI) (mouse) (UniProt O54819). Nature of the assay: ELISA, coated mouse TFPI.
The target of assay [2] is human TFPI K1 + K2 (human) (UniProt P10646). Description: Western blots and ELISA. (In western blotting, separated proteins are transferred to a membrane and probed.)
The target in assay [3] is human TFPI K1 + K2 + K3 (human) (UniProt P10646). Description: Western blots and ELISA.
Assay [4] addresses human tissue factor pathway inhibitor (TFPI) (human) (UniProt P10646). Description: ELISA, Fab lysate on coated human TFPI. (In general: ELISA stands for enzyme-linked immunosorbent assay.)
For assay [5], the target named is mouse tissue factor pathway inhibitor (TFPI) (mouse) (UniProt O54819). Nature of the assay: ELISA on coated mouse TFPI, titration of the IgG, fluorescence units.

No constants are given. Whether binding was seen depends on the method and setting. Some results given as binding are weak or reduced against the parent protein; the word gives no strength.

B1: TP-3B4 Fab (Fab, V domains shown)
VH: QVQLQQSGPGLVKPSQTLSLTCAISGDSVSSNGAAWGWIRQSPGRGLEWLGHIYYRSKWYNSYAVSVKSRITINPDTSKNQFSLQLNSVTPEDTAVYYCARWGGIHDGDIYFDYWGQGTLVTVSS
VL: DIQMTQSPSSLSASVGDRVTITCRASQNISNYLNWYQQKPGKAPKLLIYGTSSLQSGVPSRFSGSGSGTDFTLTISSLQPEDFAVYYCQQYGNNPTTFGQGTKVEIKR
For the molecule B1, the binding entry in assay [1] was “binds”.

B2: TP-3G3 Fab (Fab, V domains shown)
VH: QVQLVESGGGLVQPGGSLRLSCAASGFTFSSYSMSWVRQAPGKGLEWVSSISSSSSNTYYGDSVKGRFTISRDNSKNTLYLQMNSLRAEDTAVYYCARMHYKGMDIWGQGTLVTVSS
VL: DIQMTQSPSSLSASVGDRVTITCRASQNIHSHLNWYQQKPGKAPKLLIYDASSLQSGVPSRFSGSGSGTDFTLTISSLQPEDFAVYYCQQYYDYPLTFGQGTKVEIKR
As for B2, the binding result in assay [1] is “binds”.

B3: TP-3G1 chimeric IgG (antibody, V domains shown)
VH: QVQLQQSGPGLVKPSQTLSLTCAISGDSVSSNSGGWGWIRQSPGRGLEWLGLIYYRSKWYNAYAVSVKSRITINPDTSKNQFSLQLNSVTPEDTAVYYCARYLGSNFYVYSDVWGQGTLVTVSS
VL: DIQMTQSPSSLSASVGDRVTITCRASQGISSYLHWYQQKPGKAPKLLIYGASTLQSGVPSRFSGSGSGTDFTLTISSLQPEDFATYYCQQQNGYPFTFGQGTKVEIKR
As for B3, the binding result in assay [2] and in assay [3] was “binds” throughout.

B4: TP-3G1 Fab (Fab, V domains shown)
VH: QVQLQQSGPGLVKPSQTLSLTCAISGDSVSSNSGGWGWIRQSPGRGLEWLGLIYYRSKWYNAYAVSVKSRITINPDTSKNQFSLQLNSVTPEDTAVYYCARYLGSNFYVYSDVWGQGTLVTVSS
VL: DIQMTQSPSSLSASVGDRVTITCRASQGISSYLHWYQQKPGKAPKLLIYGASTLQSGVPSRFSGSGSGTDFTLTISSLQPEDFATYYCQQQNGYPFTFGQGTKVEIKR
Take B4: in assay [1], the binding result is recorded as “binds”.

B5: TP-3F1 Fab (Fab, V domains shown)
VH: QVQLVQSGAEVKKPGESLKISCKGSGYSFTDYWIGWVRQMPGKGLEWMGIIQPSDSDTNYSPSFQGQVTISADKSISTAYLQWSSLKASDTAMYYCARFMWWGKYDSGFDVWGQGTLVTVSS
VL: DIELTQPPSVSVAPGQTARISCSGDNIGSYFASWYQQKPGQAPVLVIYDDSNRPSGIPERFSGSNSGNTATLTISGTQAEDEADYYCEGSNVFGGGTKLTVLG
As to B5, the binding entry in assay [4] is given as “binds”.

B6: TP-3C1 Fab (Fab, V domains shown)
VH: QVQLVESGGGLVQPGGSLRLSCAASGFTFSSYSMHWVRQAPGKGLEWVSGISYSSSFTYYADSVKGRFTISRDNSKNTLYLQMNSLRAEDTAVYYCARALGGGVDYWGQGTLVTVSS
VL: DIALTQPASVSGSPGQSITISCTGTSSDLGGFNTVSWYQQHPGKAPKLMIYSVSSRPSGVSNRFSGSKSGNTASLTISGLQAEDEADYYCQSYDLNNLVFGGGTKLTVLG
With B6, the binding entry in assay [1] is “binds”.

B7: 2G6-IgG (antibody, V domains shown)
VH: QVQLQQSGPGLVKPSQTLSLTCAISGDSVSSSSAAWSWIRQSPGRGLEWLGIIYYRSKWYNDYAVSVKSRITINPDTSKNQFSLQLNSVTPEDTAVYYCARHSMVGFDVWGQGTLVTVSS
VL: DIVLTQSPATLSLSPGERATLSCRASQYVTSSYLAWYQQKPGQAPRLLIYGSSRATGVPARFSGSGSGTDFTLTISSLEPEDFATYYCQQYSSSPITFGQGTKVEIKR
With B7, the binding result in assay [2], in assay [3] and in assay [5] was “binds” each time.

B8: TP-3C2 Fab (Fab, V domains shown)
VH: QVQLQQSGPGLVKPSQTLSLTCAISGDSVSSSSAAWSWIRQSPGRGLEWLGMIYYRSKWYNHYAVSVKSRITINPDTSKNQFSLQLNSVTPEDTAVYYCARGGSGVMDVWGQGTLVTVSS
VL: DIQMTQSPSSLSASVGDRVTITCRASQSITNYLNWYQQKPGKAPKLLIYDVSNLQSGVPSRFSGSGSGTDFTLTISSLQPEDFAVYYCQQYSGYPLTFGQGTKVEIKR
B8: in assay [1], the binding entry is on record as “binds”.

B9: TP-3C2 chimeric IgG (antibody, V domains shown)
VH: QVQLQQSGPGLVKPSQTLSLTCAISGDSVSSSSAAWSWIRQSPGRGLEWLGMIYYRSKWYNHYAVSVKSRITINPDTSKNQFSLQLNSVTPEDTAVYYCARGGSGVMDVWGQGTLVTVSS
VL: DIQMTQSPSSLSASVGDRVTITCRASQSITNYLNWYQQKPGKAPKLLIYDVSNLQSGVPSRFSGSGSGTDFTLTISSLQPEDFAVYYCQQYSGYPLTFGQGTKVEIKR
Take B9: the binding result in assay [2] and in assay [3] was “binds” each time.

B10: TP-2B3 chimeric IgG (antibody, V domains shown)
VH: QVQLQQSGPGLVKPSQTLSLTCAISGDSVSSNSAAWGWIRQSPGRGLEWLGMIYYRSKWYNSYAVSVKSRITINPDTSKNQFSLQLNSVTPEDTAVYYCARTMSKYGGPGMDVWGQGTLVTVSS
VL: DIVLTQSPATLSLSPGERATLSCRASQNIGSNYLAWYQQKPGQAPRLLIYGASTRATGVPARFNGSGSGTDFTLTISSLEPEDFAVYYCQQLNSIPVTFGQGTKVEIKR
On to B10, for which the binding result in assay [2] and in assay [3] was “binds” in each case.

B11: TP-2A5.1 Fab (Fab, V domains shown)
VH: QVQLVESGGGLVQPGGSLRLSCAASGFTFSSYGSWVRQAPGKGLEWVSVISGSGSSTYYADSVKGRFTISRDNSKNTLYLQMNSLRAEDTAVYYCARVNISTHFDVWGQGTLVTVSS
VL: DIELTQPPSVSVAPGQTARISCSGDNIPEKYVHWYQQKPGQAPVLVIHGDNNRPSGIPERFSGSNSGNTATLTISGTQAEDEADYYCQSFDAGSYFVFGGGTKLTVLG
For the molecule B11, the binding entry in assay [1] and in assay [4] was “binds” in each case.

B12: TP-2A8-IgG (antibody, V domains shown)
VH: QVQLVESGGGLVQPGGSLRLSCAASGFTFRSYGMSWVRQAPGKGLEWVSSIRGSSSSTYYADSVKGRFTISRDNSKNTLYLQMNSLRAEDTAVYYCARKYRYWFDYWGQGTLVTVSS
VL: DIELTQPPSVSVAPGQTARISCSGDNLRNYYAHWYQQKPGQAPVVVIYYDNNRPSGIPERFSGSNSGNTATLTISGTQAEDEADYYCQSWDDGVPVFGGGTKLTVLG
With B12, the binding entry in assay [2] and in assay [3] was “binds” throughout.

B13: TP-4B7 chimeric IgG (antibody, V domains shown)
VH: QVQLQQSGPGLVKPSQTLSLTCAISGDSVSSNSAAWSWIRQSPGRGLEWLGIIYKRSKWYNDYAVSVKSRITINPDTSKNQFSLQLNSVTPEDTAVYYCARWHSDKHWGFDYWGQGTLVTVSS
VL: DIVMTQSPLSLPVTPGEPASISCRSSQSLVFSDGNTYLNWYLQKPGQSPQLLIYKGSNRASGVPDRFSGSGSGTDFTLKISRVEAEDVGVYYCQQYDSYPLTFGQGTKVEIKR
As for B13, the binding entry in assay [2] and in assay [3] was “binds” each time.

B14: TP-4B7 Fab (Fab, V domains shown)
VH: QVQLQQSGPGLVKPSQTLSLTCAISGDSVSSNSAAWSWIRQSPGRGLEWLGIIYKRSKWYNDYAVSVKSRITINPDTSKNQFSLQLNSVTPEDTAVYYCARWHSDKHWGFDYWGQGTLVTVSS
VL: DIVMTQSPLSLPVTPGEPASISCRSSQSLVFSDGNTYLNWYLQKPGQSPQLLIYKGSNRASGVPDRFSGSGSGTDFTLKISRVEAEDVGVYYCQQYDSYPLTFGQGTKVEIKR
Regarding B14, the binding entry in assay [1] is “binds”.
